Measured values taken from publication PMC7758422 (Frontiers in Chemistry, 2020).
HELM strings list residues between dots; [ac] is acetyl, [am] amide, other brackets name non-standard units.

Assay: general procedure: Fmoc solid-phase peptide synthesis; Rink amide resin (loading 0.15 mmol/g); rink amide AM resin (loading = 0.33 mmol/g); HCTU/DIPEA
Conditions: whole synthesis; for isolated yield: scale of the general procedure 0.15 mmol

Substance | isolated mass | isolated yield
PEPTIDE1{[ac].G.L.F.A.V.I.K.K.[S5].A.S.V.[S5].K.G.L.[am]}$PEPTIDE1,PEPTIDE1,10:R3-14:R3$$$V2.0 | 170 mg | 66%
PEPTIDE1{[ac].G.L.F.A.V.I.K.K.V.A.[S5].V.I.K.[S5].L.[am]}$PEPTIDE1,PEPTIDE1,12:R3-16:R3$$$V2.0 | 166 mg | 62%
PEPTIDE1{[ac].G.L.F.A.V.I.K.K.V.A.S.V.I.K.G.L.[am]}$$$$V2.0 | 169 mg | 67%
PEPTIDE1{[ac].G.[S5].F.A.V.[S5].K.K.V.A.S.V.I.K.G.L.[am]}$PEPTIDE1,PEPTIDE1,3:R3-7:R3$$$V2.0 | 161 mg | 63%
PEPTIDE1{[ac].G.L.F.A.V.[R8].K.K.V.A.S.V.[S5].K.G.L.[am]}$PEPTIDE1,PEPTIDE1,7:R3-14:R3$$$V2.0 | 162 mg | 62%
PEPTIDE1{[ac].G.L.F.A.V.[S5].K.K.V.[S5].S.V.I.K.G.L.[am]}$PEPTIDE1,PEPTIDE1,7:R3-11:R3$$$V2.0 | 186 mg | 71%
PEPTIDE1{[ac].G.[R8].F.A.V.I.K.K.[S5].A.S.V.I.K.G.L.[am]}$PEPTIDE1,PEPTIDE1,3:R3-10:R3$$$V2.0 | 166 mg | 63%
PEPTIDE1{[ac].G.L.F.A.[S5].I.K.K.[S5].A.S.V.I.K.G.L.[am]}$PEPTIDE1,PEPTIDE1,6:R3-10:R3$$$V2.0 | 161 mg | 62%
